# Measured values: US20250283871A1, “COMPOSITIONS AND METHODS FOR MODULATING THE INTERACTION BETWEEN SS18-SSX FUSION ONCOPROTEIN AND NUCLEOSOMES” (Dana-Farber Cancer Institute, Inc., priority 2020, published 2025)
# Tested on: BAF complex subunits and histone proteins
# Experiment: Mass spectrometry proteomics of purified HA-SS18 WT and HA-SS18-SSX1 complexes (Tables 5A-5E)
# Parameters: species or system human
# Conditions: for Total / Unique: HA-SS18SSX1_CHR_peptides; for Total: total peptides of the identified protein; for Unique: unique peptides of the identified protein; for Total (peptides) / Unique (peptides) / Total (total peptides) / Unique (unique peptides): HEK-293T; for Total (total peptides) / Unique (unique peptides): HA-SS18WT_CHR_peptides: protein identified in HA-SS18 WT BAF complex purification from nuclease-treated solubilized chromatin (CHR)
# [1] = HA-SS18WT_CHR_peptides: HA-SS18 WT purification from nuclease-treated solubilized chromatin (CHR), label = protein identified
# [2] = HA-SS18WT_NE_peptides: proteins co-purified with HA-SS18 WT from nuclear extract (NE)
Molecule,Total,Unique,Total (peptides) [1],Unique (peptides) [1],Total (peptides) [2],Unique (peptides) [2],Total (total peptides),Unique (unique peptides)
"DDX31 (protein, UniProt Q9H8H2 1-851, looked up) ATP-dependent DNA helicase …: MAPDLASQRHSESFPSVNSRPNVILPGREGRREGLPPGGGTRGSLVPTRPVPPSPAPLGTSPYSWSRSGPGRGGGAGSSRVPRGVPGPAVCAPGSLLHHASPTQTMAAADGSLFDNPRTFSRRPPAQASRQAKATKRKYQASSEAPPAKRRNETSFLPAKKTSVKETQRTFKGNAQKMFSPKKHSVSTSDRNQEERQCIKTSSLFKNNPDIPELHRPVVKQVQEKVFTSAAFHELGLHPHLISTINTVLKMSSMTSVQKQSIPVLLEGRDALVRSQTGSGKTLAYCIPVVQSLQAMESKIQRSDGPYALVLVPTRELALQSFDTVQKLLKPFTWIVPGVLMGGEKRKSEKARLRKGINILISTPGRLVDHIKSTKNIHFSRLRWLVFDEADRILDLGFEKDITVILNAVNAECQKRQNVLLSATLTEGVTRLADISLHDPVSISVLDKSHDQLNPKDKAVQEVCPPPAGDKLDSFAIPESLKQHVTVVPSKLRLVCLAAFILQKCKFEEDQKMVVFFSSCELVEFHYSLFLQTLLSSSGAPASGQLPSASMRLKFLRLHGGMEQEERTAVFQEFSHSRRGVLLCTDVAARGLDLPQVTWIVQYNAPSSPAEYIHRIGRTARIGCHGSSLLILAPSEAEYVNSLASHKINVSEIKMEDILCVLTRDDCFKGKRWGAQKSHAVGPQEIRERATVLQTVFEDYVHSSERRVSWAKKALQSFIQAYATYPRELKHIFHVRSLHLGHVAKSFGLRDAPRNLSALTRKKRKAHVKRPDLHKKTQSKHSLAEILRSEYSSGMEADIAKVKKQNAPGEPGGRPLQHSLQPTPCFGRGKTLKWRKTQKGVQRDSKTSQKV",3,3,3,3,2,2,,
"CBX2 (protein, UniProt Q14781 1-532, looked up) Chromobox protein homolog 2: MEELSSVGEQVFAAECILSKRLRKGKLEYLVKWRGWSSKHNSWEPEENILDPRLLLAFQKKEHEKEVQNRKRGKRPRGRPRKLTAMSSCSRRSKLKEPDAPSKSKSSSSSSSSTSSSSSSDEEDDSDLDAKRGPRGRETHPVPQKKAQILVAKPELKDPIRKKRGRKPLPPEQKATRRPVSLAKVLKTARKDLGAPASKLPPPLSAPVAGLAALKAHAKEACGGPSAMATPENLASLMKGMASSPGRGGISWQSSIVHYMNRMTQSQAQAASRLALKAQATNKCGLGLDLKVRTQKGELGMSPPGSKIPKAPSGGAVEQKVGNTGGPPHTHGASRVPAGCPGPQPAPTQELSLQVLDLQSVKNGMPGVGLLARHATATKGVPATNPAPGKGTGSGLIGASGATMPTDTSKSEKLASRAVAPPTPASKRDCVKGSATPSGQESRTAPGEARKAATLPEMSAGEESSSSDSDPDSASPPSTGQNPSVSVQTSQDWKPTRSLIEHVFVTDVTANLITVTVKESPTSVGFFNLRHY",3,3,,,,,2,2
"PHF14 (protein, UniProt O94880 1-948, looked up) PHD finger protein 14: MDRSSKRRQVKPLAASLLEALDYDSSDDSDFKVGDASDSEGSGNGSEDASKDSGEGSCSDSEENILEEELNEDIKVKEEQLKNSAEEEVLSSEKQLIKMEKKEEEENGERPRKKKEKEKEKEKEKEKEKEREKEKEKATVSENVAASAAATTPATSPPAVNTSPSVPTTTTATEEQVSEPKKWNLRRNRPLLDFVSMEELNDMDDYDSEDDNDWRPTVVKRKGRSASQKEGSDGDNEDDEDEGSGSDEDENDEGNDEDHSSPASEGGCKKKKSKVLSRNSADDEELTNDSLTLSQSKSNEDSLILEKSQNWSSQKMDHILICCVCLGDNSEDADEIIQCDNCGITVHEGCYGVDGESDSIMSSASENSTEPWFCDACKCGVSPSCELCPNQDGIFKETDAGRWVHIVCALYVPGVAFGDIDKLRPVTLTEMNYSKYGAKECSFCEDPRFARTGVCISCDAGMCRAYFHVTCAQKEGLLSEAAAEEDIADPFFAYCKQHADRLDRKWKRKNYLALQSYCKMSLQEREKQLSPEAQARINARLQQYRAKAELARSTRPQAWVPREKLPRPLTSSASAIRKLMRKAELMGISTDIFPVDNSDTSSSVDGRRKHKQPALTADFVNYYFERNMRMIQIQENMAEQKNIKDKLENEQEKLHVEYNKLCESLEELQNLNGKLRSEGQGIWALLGRITGQKLNIPAILRAPKERKPSKKEGGTQKTSTLPAVLYSCGICKKNHDQHLLLLCDTCKLHYHLGCLDPPLTRMPRKTKNSYWQCSECDQAGSSDMEADMAMETLPDGTKRSRRQIKEPVKFVPQDVPPEPKKIPIRNTRTRGRKRSFVPEEEKHEERVPRERRQRQSVLQKKPKAEDLRTECATCKGTGDNENLVRCDECRLCYHFGCLDPPLKKSPKQTGYGWICQECDSSSSKEDENEAERKNISQELNMEQKNPKK",3,3,,,,,1,1
"RRP12 (protein, UniProt Q5JTH9 1-1297, looked up) RRP12-like protein: MGRSGKLPSGVSAKLKRWKKGHSSDSNPAICRHRQAARSRFFSRPSGRSDLTVDAVKLHNELQSGSLRLGKSEAPETPMEEEAELVLTEKSSGTFLSGLSDCTNVTFSKVQRFWESNSAAHKEICAVLAAVTEVIRSQGGKETETEYFAALMTTMEAVESPESLAAVAYLLNLVLKRVPSPVLIKKFSDTSKAFMDIMSAQASSGSTSVLRWVLSCLATLLRKQDLEAWGYPVTLQVYHGLLSFTVHPKPKIRKAAQHGVCSVLKGSEFMFEKAPAHHPAAISTAKFCIQEIEKSGGSKEATTTLHMLTLLKDLLPCFPEGLVKSCSETLLRVMTLSHVLVTACAMQAFHSLFHARPGLSTLSAELNAQIITALYDYVPSENDLQPLLAWLKVMEKAHINLVRLQWDLGLGHLPRFFGTAVTCLLSPHSQVLTAATQSLKEILKECVAPHMADIGSVTSSASGPAQSVAKMFRAVEEGLTYKFHAAWSSVLQLLCVFFEACGRQAHPVMRKCLQSLCDLRLSPHFPHTAALDQAVGAAVTSMGPEVVLQAVPLEIDGSEETLDFPRSWLLPVIRDHVQETRLGFFTTYFLPLANTLKSKAMDLAQAGSTVESKIYDTLQWQMWTLLPGFCTRPTDVAISFKGLARTLGMAISERPDLRVTVCQALRTLITKGCQAEADRAEVSRFAKNFLPILFNLYGQPVAAGDTPAPRRAVLETIRTYLTITDTQLVNSLLEKASEKVLDPASSDFTRLSVLDLVVALAPCADEAAISKLYSTIRPYLESKAHGVQKKAYRVLEEVCASPQGPGALFVQSHLEDLKKTLLDSLRSTSSPAKRPRLKCLLHIVRKLSAEHKEFITALIPEVILCTKEVSVGARKNAFALLVEMGHAFLRFGSNQEEALQCYLVLIYPGLVGAVTMVSCSILALTHLLFEFKGLMGTSTVEQLLENVCLLLASRTRDVVKSALGFIKVAVTVMDVAHLAKHVQLVMEAIGKLSDDMRRHFRMKLRNLFTKFIRKFGFELVKRLLPEEYHRVLVNIRKAEARAKRHRALSQAAVEEEEEEEEEEEPAQGKGDSIEEILADSEDEEDNEEEERSRGKEQRKLARQRSRAWLKEGGGDEPLNFLDPKVAQRVLATQPGPGRGRKKDHGFKVSADGRLIIREEADGNKMEEEEGAKGEDEEMADPMEDVIIRNKKHQKLKHQKEAEEEELEIPPQYQAGGSGIHRPVAKKAMPGAEYKAKKAKGDVKKKGRPDPYAYIPLNRSKLNRRKKMKLQGQFKGLVKAARRGSQVGHKNRRKDRRP",3,3,4,3,,,,
"HNRNPUL1 (protein, UniProt Q9BUJ2 1-856, looked up) Heterogeneous nuclear …: MDVRRLKVNELREELQRRGLDTRGLKAELAERLQAALEAEEPDDERELDADDEPGRPGHINEEVETEGGSELEGTAQPPPPGLQPHAEPGGYSGPDGHYAMDNITRQNQFYDTQVIKQENESGYERRPLEMEQQQAYRPEMKTEMKQGAPTSFLPPEASQLKPDRQQFQSRKRPYEENRGRGYFEHREDRRGRSPQPPAEEDEDDFDDTLVAIDTYNCDLHFKVARDRSSGYPLTIEGFAYLWSGARASYGVRRGRVCFEMKINEEISVKHLPSTEPDPHVVRIGWSLDSCSTQLGEEPFSYGYGGTGKKSTNSRFENYGDKFAENDVIGCFADFECGNDVELSFTKNGKWMGIAFRIQKEALGGQALYPHVLVKNCAVEFNFGQRAEPYCSVLPGFTFIQHLPLSERIRGTVGPKSKAECEILMMVGLPAAGKTTWAIKHAASNPSKKYNILGTNAIMDKMRVMGLRRQRNYAGRWDVLIQQATQCLNRLIQIAARKKRNYILDQTNVYGSAQRRKMRPFEGFQRKAIVICPTDEDLKDRTIKRTDEEGKDVPDHAVLEMKANFTLPDVGDFLDEVLFIELQREEADKLVRQYNEEGRKAGPPPEKRFDNRGGGGFRGRGGGGGFQRYENRGPPGGNRGGFQNRGGGSGGGGNYRGGFNRSGGGGYSQNRWGNNNRDNNNSNNRGSYNRAPQQQPPPQQPPPPQPPPQQPPPPPSYSPARNPPGASTYNKNSNIPGSSANTSTPTVSSYSPPQPSYSQPPYNQGGYSQGYTAPPPPPPPPPAYNYGSYGGYNPAPYTPPPPPTAQTYPQPSYNQYQQYAQQWNQYYQNQGQWPPYYGNYDYGSYSGNTQGGTSTQ",3,3,3,3,,,,
"RPF2 (protein, UniProt Q9H7B2 1-306, looked up) Ribosome production factor 2 …: MDTLDRVVKPKTKRAKRFLEKREPKLNENIKNAMLIKGGNANATVTKVLKDVYALKKPYGVLYKKKNITRPFEDQTSLEFFSKKSDCSLFMFGSHNKKRPNNLVIGRMYDYHVLDMIELGIENFVSLKDIKNSKCPEGTKPMLIFAGDDFDVTEDYRRLKSLLIDFFRGPTVSNIRLAGLEYVLHFTALNGKIYFRSYKLLLKKSGCRTPRIELEEMGPSLDLVLRRTHLASDDLYKLSMKMPKALKPKKKKNISHDTFGTTYGRIHMQKQDLSKLQTRKMKGLKKRPAERITEDHEKKSKRIKKN",3,3,,,,,2,2
